# Experimental data: patent US8048918B2, “Treatment of hyperproliferative diseases” (Vampex Limited, priority 2000, dated 2011)
# At least one structure is not confirmed: it was looked up by name or label, or the drawing left a doubt.
# Legend:
# [1] = system: normal human epidermal keratinocytes; test: proliferation assay on normal human epidermal keratinocytes; type: cell-based; details: Carbenoxolone 6 μM, Disulfiram 15 μM or Citral 10 μM
# Method: Pieces of skin are washed thoroughly for 30 minutes in Betadine solution (10% iodine) followed by 2×10 minute washes in PBS. After removal of the subcutaneous tissue and dermis with a scalpel the skin is dissected into 5×10 mm pieces. The skin pieces are rinsed 5× in PBS followed by incubating in Dispase (grade 11, 2.4 U/ml, Boehringer Mannheim) for 18 hours at4° C.
# The skin pieces are then placed dermis side down in 100 mm Petri dishes and are irrigated with 5 ml KSFM. The epidermis is peeled off with forceps and incubated in 10 ml 1× Trypsin/EDTA solution for 10 minutes at 37° C. followed by addition of 10 ml KSFM. The sample is mechanically agitated by aspiration and ejection from a transfer pipette. The resulting cell suspension is sieved using a cell strainer (Becton Dickinson) rinsing through with KSFM. The isolated epidermal cells are then washed twice in KSFM by centrifugation at 100 g for 10 min. Cells are seeded as below.
# Primary cultures were seeded at 3500 cells/cm^2 in K-SFM 25 cm^2 tissue culture flasks. […]
# The medium is replaced every other day. […] The cell suspension is added to 20 ml Isoton solution in a Coulter counter “Accuvette” and the cells are counted. On each harvest, 3 wells of cells are counted for each treatment and 3 counts were made for each well.
# Cell number is calculated as follows: Coulter Counter removes 500 μl of 20 ml sample ( 1/40). […]
# [2] = system: normal human epidermal keratinocytes; test: differentiation assay (K1/K10) on normal human epidermal keratinocytes; type: cell-based; details: Carbenoxolone 6 μM, Disulfiram 15 μM or Citral 10 μM; 1.2 mM calcium; FIG. 11
# Method: Primary cultures were seeded at 3500 cells/cm^2 in K-SFM 25 cm^2 tissue culture flasks. The medium was changed (5 ml per flask) the day after seeding and every other day thereafter. At 70-80% confluence the cells were subcultured by seeding 3500 cells/cm^2 in new 25 cm^2 flasks. On the day that the subcultures reached confluence the medium was switched to medium containing the experimental treatments.
# The cells were cultured for 4 days, replacing the experimental medium every other day, before harvesting the cells.
# RNA extraction is carried out according to the manufacturers instructions using the RNeasy kit (QIAGEN). 20 μg of RNA for each treatment was separated on a 1.2% agarose (1.8% formaldehyde) gel and transferred onto a nylon membrane (Zeta probe GT membranes, BioRad) by capillary transfer. The RNA is fixed to the membrane by UV crosslinking. DNA probes for the differentiation markers K1 and K10(50 ng) are labelled with [α-^32P] dCTP using the Prime-It RmT Primer labeling kit (Stratagene) following the manufacturer's instructions. […]
# Synthesis of mRNA for the K1 and K10 keratin (markers for commitment to terminal differentiation) is examined by quantitative reverse transcription PCR (RT-PCR). […] The RNA is blotted onto a nylon membrane by capillary transfer and expression of K1 mRNA is determined by Northern hybridisation with a radiolabelled DNA probe. […]
# retinoic acid synthesis = test: RA synthesis in normal human epidermal keratinocytes; type: cell-based; details: Carbenoxolone 6 μM, Disulfiram 15 μM or Citral 10 μM
# Method: Protocols used are as described in as in Båvik et al., Experimental Cell research 1995:216, p. 358-362. Briefly, subcultures are grown to confluence in KGM. On day of confluence change to keratinocyte differentiation media (1.2 mM Ca^2+, KDM) with 2 μM holo-RBP+/−inhibitors ([…]; […]; 10 μM Citral; 0.2 mM 4-Methylpyrazole; 15 μM Disulfiram; 10 μM Citral; 2 mM 3-Mercaptopropionic acid; or drug vehicle alone). Cells are grown for 4 days, and cells are media are harvested.
# The concentration of RA in cells and media is analysed directly by HPLC. Essentially as in “Characterisation of retinol metabolism in cultured human epidermal keratinocytes”, Randolph R. K. and Simon M., J. Biol. Chem. 268:9198-9205, 1993. The concentration of RA in cells is also analysed indirectly by Northern blot analysis of CRABPII mRNA expression in the keratinocytes, essentially as described in Elder et al. Retinoid Induction of CRABPII nRNA in Human Dermal Fibroblasts: Use as a Retinoid Bioassay, J. Investigative Dermatology 106:517-521, 1996.
# The above two experiments are repeated, but with the use of normal human epithelial keratinocytes instead of psoriatic human epidermal keratinocytes.
# retinal dehydrogenases = details: literature; cited from earlier work
compound,measurement,setting,value
CCN(CC)C(=S)SSC(=S)N(CC)CC [Disulfiram],proliferation,[1],inhibit proliferation
same,differentiation,[2],increase differentiation
same,retinoic acid synthesis,retinoic acid synthesis,inhibited
same,inhibition of retinal dehydrogenases,retinal dehydrogenases,inhibits all retinal dehydrogenases
